Reference: PubChem BioAssay AID652243 (Drosophila RNAi Screening Center, 2013)

- Aim: 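Knock-downs that decrease or increase androgen receptor reporter signal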 (primary screen)
- Cells: Drosophila S2R+ cells
- Reagent: long dsRNA against Drosophila genes
- Duration: 72 h (48 h, then 24 h hormone)
- Conditions: synthetic androgen R1881 at 10 nM for 24 h
- Detection: 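Firefly light from an androgen-responsive reporter and Renilla control light per well, raw and unnormalised, for each of two replicates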
- Reading the numbers: firefly reporter light: higher = more light from androgen-responsive reporter; Renilla control light: higher = more constitutive control signal (cell number, transfection)
- Call rule: 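Across duplicate plates, a knock-down whose log firefly/Renilla ratio shifted a set fold down or up from the GFP/LacZ control mean was a hit; the downward cut appears as both 1.5 and 3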
- Meaning of the calls: active = hit: reporter lowered or raised; inactive = no hit
The screen tested about 24,000 reagents; below is a random part of those with a known target gene and a result. Over the whole deposit, 246 (1%) were called active. 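Plates not normalised; calls are printed but the firefly/Renilla ratio behind them is not deposited; fold cut for lowering reported inconsistently.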 Raw values are not corrected between plates. Reagents against one gene are numbered here. A plus sign joins genes that one reagent is predicted to hit. The record does not give: the amount of reagent.

target gene | dsRNA no. | firefly reporter light, replicate 1 | firefly reporter light, replicate 2 | Renilla control light, replicate 1 | Renilla control light, replicate 2 | call
CG12661 | 1 | 1.94e5 | 1.89e5 | 2.42e6 | 3.19e6 | inactive
CG12661 | 2 | 5.08e5 | 3.78e5 | 1.83e6 | 1.36e6 | inactive
CG13144 | 1 | 1.32e5 | 1.80e5 | 1.36e6 | 1.11e6 | inactive
CG13587 | 1 | 2.87e5 | 2.78e5 | 1.84e6 | 1.11e6 | inactive
CG13587 | 2 | 4.24e5 | 4.98e5 | 1.16e6 | 1.16e6 | inactive
Pdk1 (Phosphoinositide-dependent kinase 1) | 1 | 37078 | 67556 | 4.55e5 | 4.64e5 | inactive
Pdk1 (Phosphoinositide-dependent kinase 1) | 2 | 2.33e5 | 1.49e5 | 5.78e5 | 4.69e5 | inactive
Pdk1 (Phosphoinositide-dependent kinase 1) | 3 | – | – | – | – | inactive
CG6565 | 1 | 3.94e5 | 8.77e5 | 1.60e6 | 2.68e6 | inactive
Polr2M (RNA polymerase II subunit M) | 1 | 2.79e5 | 2.60e5 | 2.26e6 | 2.56e6 | inactive
Polr2M (RNA polymerase II subunit M) | 2 | 3.02e5 | 2.79e5 | 7.74e5 | 8.79e5 | inactive
AIMP2 (aaRS-interacting multifunctional protein 2) | 1 | 44686 | 46289 | 5.31e5 | 4.54e5 | inactive
AIMP2 (aaRS-interacting multifunctional protein 2) | 2 | 3.03e5 | 3.05e5 | 4.29e5 | 4.51e5 | inactive
comm2 | 1 | 3.58e5 | 3.86e5 | 3.29e6 | 2.87e6 | inactive
holn1 (hole-in-one) | 1 | 8.65e5 | 6.92e5 | 2.34e6 | 2.38e6 | inactive
holn1 (hole-in-one) | 2 | 6.44e5 | 9.10e5 | 2.81e5 | 3.97e5 | inactive
CG15877 | 1 | 72632 | 67388 | 1.02e6 | 1.22e6 | inactive
CG3294 | 1 | 8.35e5 | 5.67e5 | 2.27e6 | 1.73e6 | inactive
CG3294 | 2 | 2.52e5 | 2.88e5 | 6.56e5 | 7.21e5 | inactive
CG14937 | 1 | 1.66e5 | 1.62e5 | 1.28e6 | 1.61e6 | inactive
CG10581 | 1 | 2.50e5 | 1.93e5 | 2.15e6 | 2.29e6 | inactive
GluClalpha (Glutamate-gated chloride channel subunit alpha) | 1 | 2.33e5 | 2.50e5 | 2.54e6 | 3.51e6 | inactive
ETH + asRNA:CR43257 | 1 | 2.05e5 | 1.80e5 | 1.49e6 | 1.63e6 | inactive
Takl2 (Tak1-like 2) | 1 | 1.46e5 | 2.09e5 | 2.77e6 | 2.64e6 | inactive
Takl2 (Tak1-like 2) | 2 | – | – | – | – | inactive
CG12099 | 1 | 50997 | 64398 | 9.36e5 | 1.01e6 | inactive
CG31313 | 1 | 1.39e5 | 1.06e5 | 86752 | 90897 | inactive
Ing3 (Inhibitor of growth family, member 3) | 1 | 5.36e5 | 3.33e5 | 2.90e6 | 2.38e6 | inactive
Ing3 (Inhibitor of growth family, member 3) | 2 | 7.49e5 | 7.45e5 | 2.63e6 | 1.54e6 | inactive
CG15279 | 1 | 9.14e5 | 1.15e6 | 1.47e6 | 1.36e6 | inactive
CG15279 | 2 | 1.78e5 | 3.09e5 | 7.65e5 | 9.80e5 | inactive
CG17195 | 1 | 2.50e5 | 2.90e5 | 2.41e6 | 2.67e6 | inactive
CG17195 | 2 | 2.43e5 | 2.18e5 | 7.09e5 | 4.35e5 | inactive
Rint1 (RAD50 interactor 1) | 1 | 1.06e6 | 5.19e5 | 1.46e6 | 9.56e5 | inactive
Rint1 (RAD50 interactor 1) | 2 | 7.73e5 | 4.09e5 | 2.78e6 | 1.52e6 | inactive
CG14006 | 1 | 99672 | 1.29e5 | 7.35e5 | 9.55e5 | inactive
CG14006 | 2 | – | – | – | – | inactive
Hakai | 1 | 9.89e5 | 9.08e5 | 8.40e5 | 1.61e6 | inactive
Pink1 (PTEN-induced putative kinase 1) | 1 | 77295 | 58297 | 7.93e5 | 5.19e5 | inactive
Pink1 (PTEN-induced putative kinase 1) | 2 | – | – | – | – | inactive
Pink1 (PTEN-induced putative kinase 1) | 3 | – | – | – | – | inactive
TBC1D5 (TBC1 domain family member 5) | 1 | 79017 | 57757 | 3.25e5 | 4.66e5 | inactive
TBC1D5 (TBC1 domain family member 5) | 2 | 2.57e5 | 1.96e5 | 5.03e5 | 2.14e5 | inactive
CG17047 | 1 | 3.86e5 | 2.37e5 | 2.24e6 | 1.70e6 | inactive
Phlpp (PH domain leucine-rich repeat protein phosphatase) | 1 | 2.70e5 | 2.29e5 | 2.65e6 | 2.04e6 | inactive
Phlpp (PH domain leucine-rich repeat protein phosphatase) | 2 | 7.71e5 | 1.17e6 | 1.20e6 | 1.66e6 | inactive
Phlpp (PH domain leucine-rich repeat protein phosphatase) | 3 | – | – | – | – | inactive
CG15253 | 1 | 1.36e5 | 1.20e5 | 1.65e6 | 1.57e6 | inactive
CG15253 | 2 | 3.91e5 | 4.08e5 | 8.96e5 | 4.62e5 | inactive
CG6154 | 1 | 1.97e5 | 1.99e5 | 2.93e6 | 2.76e6 | inactive
CG6154 | 2 | 3.06e5 | 6.75e5 | 8.11e5 | 1.24e6 | inactive
Snx1 (Sorting nexin 1) | 1 | 1.02e5 | 1.46e5 | 9.08e5 | 9.45e5 | inactive
Hdc (Histidine decarboxylase) | 1 | 9.71e5 | 8.39e5 | 1.27e6 | 1.28e6 | inactive
Hdc (Histidine decarboxylase) | 2 | 4.39e5 | 4.59e5 | 1.16e6 | 9.79e5 | inactive
Dhc93AB (Dynein heavy chain at 93AB) | 1 | 4.29e5 | 5.14e5 | 3.25e6 | 3.83e6 | inactive
Dhc93AB (Dynein heavy chain at 93AB) | 2 | 6.20e5 | 4.21e5 | 1.94e6 | 1.97e6 | inactive
eff (effete) | 1 | 1.72e5 | 1.55e5 | 2.25e6 | 1.62e6 | inactive
eff (effete) | 2 | 7.46e5 | 6.15e5 | 2.35e6 | 1.71e6 | inactive

9 entries from above, set out differently.
| target gene | dsRNA no. | firefly reporter light, replicate 1 | firefly reporter light, replicate 2 | Renilla control light, replicate 1 | Renilla control light, replicate 2 | call |
| --- | --- | --- | --- | --- | --- | --- |
| CG12099 | 1 | 50997 | 64398 | 9.36e5 | 1.01e6 | inactive |
| CG31313 | 1 | 1.39e5 | 1.06e5 | 86752 | 90897 | inactive |
| Ing3 (Inhibitor of growth family, member 3) | 1 | 5.36e5 | 3.33e5 | 2.90e6 | 2.38e6 | inactive |
| Ing3 (Inhibitor of growth family, member 3) | 2 | 7.49e5 | 7.45e5 | 2.63e6 | 1.54e6 | inactive |
| CG15279 | 1 | 9.14e5 | 1.15e6 | 1.47e6 | 1.36e6 | inactive |
| CG15279 | 2 | 1.78e5 | 3.09e5 | 7.65e5 | 9.80e5 | inactive |
| CG17195 | 1 | 2.50e5 | 2.90e5 | 2.41e6 | 2.67e6 | inactive |
| CG17195 | 2 | 2.43e5 | 2.18e5 | 7.09e5 | 4.35e5 | inactive |
| Rint1 (RAD50 interactor 1) | 1 | 1.06e6 | 5.19e5 | 1.46e6 | 9.56e5 | inactive |
